Results: the supplement of paper PMC6078165

Test system: Hs578T
Experiment: relative JC-1 red fluorescence (viability) vs pre-drug, coculture with fibroblast (fraction); higher = more viable cancer cells
Method: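 JC-1 labelled TNBC cells cocultured 1:1 (1,500 cells each) with CellTrace Violet stained primary or stromal fibroblasts in 384-well plates in FluoroBrite medium, treated with one of 42 anticancer drugs at 0.1, 1, 10 or 100 uM. JC-1 red fluorescence (mitochondrial integrity in cancer cells only) was read by plate reader every 8 h for 72 h. Values are normalised to each well's pre-drug value. The stock of one drug was tenfold lower, so its dose labels may be too high.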

CO[C@H]1C[C@@H]2CC[C@@H](C)[C@@](O)(O2)C(=O)C(=O)N2CCCC[C@H]2C(=O)O[C@H]([C@H](C)C[C@@H]2CC[C@@H](OCCO)[C@H](OC)C2)CC(=O)[C@H](C)/C=C(\C)[C@@H](O)[C@@H](OC)C(=O)[C@H](C)C[C@H](C)/C=C/C=C/C=C/1C [Everolimus]
relative JC-1 red fluorescence
Conditions	8 h	16 h	24 h	32 h	40 h	48 h	56 h	64 h	72 h
0.1 µM	0.9302	0.806	0.7109	0.664	0.589	0.545	0.516	0.473	0.463
1 µM	0.918	0.818	0.761	0.721	0.653	0.609	0.59	0.554	0.544
10 µM	0.853	0.9	0.966	0.9295	0.858	0.8073	0.7884	0.7414	0.728
100 µM	0.948	0.933	0.856	0.871	0.785	0.821	0.724	0.755	0.746

relative JC-1 red fluorescence
Conditions	8 h	16 h	24 h	32 h	40 h	48 h	56 h	64 h	72 h
0.1 µM, coculture fibroblast: C12385	0.8189	0.688	0.676	0.596	0.544	0.519	0.499	0.5	0.505
0.1 µM, coculture fibroblast: H6013	0.837	0.769	0.712	0.689	0.643	0.635	0.617	0.614	0.593
0.1 µM, coculture fibroblast: H6019	0.77	0.684	0.648	0.563	0.531	0.5099	0.4916	0.4811	0.4651
0.1 µM, coculture fibroblast: H6076	0.8619	0.783	0.7472	0.7369	0.703	0.701	0.691	0.698	0.707
0.1 µM, coculture fibroblast: H6231	0.873	0.738	0.687	0.647	0.59	0.568	0.529	0.515	0.504
0.1 µM, coculture fibroblast: HADF	0.891	0.7958	0.725	0.676	0.638	0.615	0.584	0.575	0.546
0.1 µM, coculture fibroblast: HCFa	0.833	0.752	0.7	0.646	0.588	0.577	0.552	0.539	0.51
0.1 µM, coculture fibroblast: HCPF	0.888	0.786	0.736	0.709	0.6532	0.6341	0.6194	0.592	0.5861
0.1 µM, coculture fibroblast: HHSteC	0.8607	0.754	0.71	0.66	0.615	0.589	0.575	0.556	0.532
0.1 µM, coculture fibroblast: HMF	0.881	0.776	0.709	0.6902	0.626	0.6036	0.571	0.548	0.539
0.1 µM, coculture fibroblast: HPFa	0.883	0.7477	0.681	0.611	0.556	0.522	0.482	0.468	0.431
0.1 µM, coculture fibroblast: HUF	0.883	0.746	0.735	0.653	0.601	0.568	0.544	0.543	0.532
0.1 µM, coculture fibroblast: Hs27A	0.8655	0.796	0.748	0.7127	0.6663	0.6693	0.647	0.6445	0.609
0.1 µM, coculture fibroblast: Hs343T	0.923	0.80807	0.749	0.723	0.657	0.635	0.596	0.578	0.575
0.1 µM, coculture fibroblast: WS1	0.807	0.684	0.648	0.552	0.499	0.488	0.466	0.468	0.476
1 µM, coculture fibroblast: C12385	0.8477	0.7814	0.699	0.62	0.557	0.522	0.496	0.483	0.477
1 µM, coculture fibroblast: H6013	0.918	0.8455	0.789	0.749	0.687	0.664	0.634	0.632	0.607
1 µM, coculture fibroblast: H6019	0.77419	0.69	0.7153	0.637	0.632	0.618	0.602	0.599	0.592
1 µM, coculture fibroblast: H6076	0.8631	0.8002	0.7504	0.7483	0.7075	0.715	0.7062	0.7015	0.713
1 µM, coculture fibroblast: H6231	0.874	0.8	0.684	0.661	0.598	0.57368	0.539	0.517	0.51
1 µM, coculture fibroblast: HADF	0.899	0.852	0.784	0.74	0.708	0.695	0.668	0.664	0.641
1 µM, coculture fibroblast: HCFa	0.859	0.779	0.732	0.692	0.634	0.617	0.584	0.566	0.533
1 µM, coculture fibroblast: HCPF	0.849	0.775	0.731	0.717	0.668	0.651	0.642	0.6092	0.6014
1 µM, coculture fibroblast: HHSteC	0.956	0.874	0.785	0.729	0.663	0.629	0.603	0.578	0.539
1 µM, coculture fibroblast: HMF	0.822	0.746	0.725	0.737	0.68	0.667	0.647	0.632	0.629
1 µM, coculture fibroblast: HPFa	0.966	0.936	0.838	0.788	0.744	0.721	0.676	0.655	0.621
1 µM, coculture fibroblast: HUF	0.8475	0.755	0.678	0.586	0.527	0.492	0.458	0.446	0.439
1 µM, coculture fibroblast: Hs27A	0.89	0.85	0.785	0.753	0.7	0.685	0.655	0.648	0.61
1 µM, coculture fibroblast: Hs343T	0.925	0.8521	0.771	0.759	0.687	0.662	0.621	0.61	0.6
1 µM, coculture fibroblast: WS1	0.7995	0.684	0.651	0.56	0.5078	0.49	0.4718	0.4705	0.4732
10 µM, coculture fibroblast: C12385	0.848	0.853	0.825	0.81965	0.7801	0.7451	0.715	0.685	0.6754
10 µM, coculture fibroblast: H6013	0.928	0.976	0.957	0.9396	0.89	0.874	0.85	0.843	0.806
10 µM, coculture fibroblast: H6019	0.801	0.783	0.801	0.746	0.74	0.743	0.735	0.729	0.716
10 µM, coculture fibroblast: H6076	0.9694	0.968	0.979	0.984	0.965	0.971	0.945	0.942	0.9377
10 µM, coculture fibroblast: H6231	0.809	0.857	0.852	0.972	0.922	0.911	0.8617	0.8421	0.823
10 µM, coculture fibroblast: HADF	0.935	0.965	0.9356	0.9068	0.872	0.842	0.809	0.7886	0.7594
10 µM, coculture fibroblast: HCFa	0.934	0.927	0.906	0.868	0.808	0.791	0.769	0.746	0.72
10 µM, coculture fibroblast: HCPF	0.934	0.905	0.9225	0.903	0.858	0.847	0.823	0.787	0.756
10 µM, coculture fibroblast: HHSteC	0.96	0.865	0.894	0.874	0.9605	0.9535	0.9422	0.9315	0.901
10 µM, coculture fibroblast: HMF	0.9541	0.9552	0.9479	0.948	0.8865	0.8697	0.842	0.819	0.802
10 µM, coculture fibroblast: HPFa	0.919	0.936	0.90599	0.866	0.82	0.79	0.756	0.736	0.702
10 µM, coculture fibroblast: HUF	0.869	0.826	0.8518	0.7772	0.732	0.698	0.667	0.663	0.653
10 µM, coculture fibroblast: Hs27A	0.9395	0.9714	0.928	0.849	0.96	0.966	0.953	0.959	0.921
10 µM, coculture fibroblast: Hs343T	0.9357	0.938	0.953	0.9515	0.887	0.87	0.82	0.797	0.777
10 µM, coculture fibroblast: WS1	0.859	0.851	0.8331	0.78663	0.739	0.729	0.7	0.689	0.678
100 µM, coculture fibroblast: C12385	0.831	0.826	0.737	0.551	0.431	0.347	0.301	0.283	0.287
100 µM, coculture fibroblast: H6013	0.838	0.925	0.91	0.73	0.597	0.5263	0.48	0.492	0.498
100 µM, coculture fibroblast: H6019	0.8509	0.794	0.658	0.497	0.404	0.337	0.327	0.351	0.364
100 µM, coculture fibroblast: H6076	0.959	0.966	0.876	0.919	0.867	0.828	0.8817	0.827	0.877
100 µM, coculture fibroblast: H6231	0.888	0.811	0.813	0.876	0.767	0.728	0.709	0.764	0.81
100 µM, coculture fibroblast: HADF	0.9966	0.882	0.829	0.877	0.729	0.648	0.585	0.61	0.603
100 µM, coculture fibroblast: HCFa	0.883	0.877	0.778	0.846	0.65	0.566	0.516	0.556	0.546
100 µM, coculture fibroblast: HCPF	0.797	0.787	0.75	0.678	0.612	0.586	0.584	0.559	0.553
100 µM, coculture fibroblast: HHSteC	0.895	0.896	0.725	0.501	0.375	0.35	0.368	0.375	0.357
100 µM, coculture fibroblast: HMF	0.7995	0.598	0.584	0.571	0.572	0.579	0.581	0.576	0.573
100 µM, coculture fibroblast: HPFa	0.833	0.911	0.75	0.749	0.652	0.643	0.687	0.731	0.714
100 µM, coculture fibroblast: HUF	0.914	0.867	0.743	0.529	0.411	0.37	0.36	0.37	0.368
100 µM, coculture fibroblast: Hs27A	0.775	0.835	0.894	0.764	0.775	0.679	0.61	0.58	0.558
100 µM, coculture fibroblast: Hs343T	0.901	0.861	0.717	0.74	0.767	0.786	0.759	0.732	0.73
100 µM, coculture fibroblast: WS1	0.83	0.808	0.524	0.3893	0.305	0.262	0.2387	0.2524	0.2646

Values are relative to the signal before dosing, not to a vehicle control; the signal also falls without drug.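 Fibroblast labels denote human fibroblasts, mainly primary ones from uterus (C12385, HUF), lung (H6013), bone (Hs27A), adrenal (HADF) and skin (WS1), plus mammary HMF and breast cancer-associated Hs343T. Cancer cells are basal-like or mesenchymal-like triple-negative breast cancer lines. A hit is a response shift exceeding 3x replicate standard deviation. The tissue of the other fibroblasts is not given here.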
